Data as given in patent publication WO2008020596A2.
Results are given in words; binding and its absence hold for the method and conditions named. In cells and extracts the contact can be indirect. Some entries that bind do so weakly or less than the wild type.

By UniProt entry, the sequences of proteins in these tests, tags left out. Where a name states a change or a piece, a line headed by the entry shows the natural chain unless it says otherwise.
UniProt P28340: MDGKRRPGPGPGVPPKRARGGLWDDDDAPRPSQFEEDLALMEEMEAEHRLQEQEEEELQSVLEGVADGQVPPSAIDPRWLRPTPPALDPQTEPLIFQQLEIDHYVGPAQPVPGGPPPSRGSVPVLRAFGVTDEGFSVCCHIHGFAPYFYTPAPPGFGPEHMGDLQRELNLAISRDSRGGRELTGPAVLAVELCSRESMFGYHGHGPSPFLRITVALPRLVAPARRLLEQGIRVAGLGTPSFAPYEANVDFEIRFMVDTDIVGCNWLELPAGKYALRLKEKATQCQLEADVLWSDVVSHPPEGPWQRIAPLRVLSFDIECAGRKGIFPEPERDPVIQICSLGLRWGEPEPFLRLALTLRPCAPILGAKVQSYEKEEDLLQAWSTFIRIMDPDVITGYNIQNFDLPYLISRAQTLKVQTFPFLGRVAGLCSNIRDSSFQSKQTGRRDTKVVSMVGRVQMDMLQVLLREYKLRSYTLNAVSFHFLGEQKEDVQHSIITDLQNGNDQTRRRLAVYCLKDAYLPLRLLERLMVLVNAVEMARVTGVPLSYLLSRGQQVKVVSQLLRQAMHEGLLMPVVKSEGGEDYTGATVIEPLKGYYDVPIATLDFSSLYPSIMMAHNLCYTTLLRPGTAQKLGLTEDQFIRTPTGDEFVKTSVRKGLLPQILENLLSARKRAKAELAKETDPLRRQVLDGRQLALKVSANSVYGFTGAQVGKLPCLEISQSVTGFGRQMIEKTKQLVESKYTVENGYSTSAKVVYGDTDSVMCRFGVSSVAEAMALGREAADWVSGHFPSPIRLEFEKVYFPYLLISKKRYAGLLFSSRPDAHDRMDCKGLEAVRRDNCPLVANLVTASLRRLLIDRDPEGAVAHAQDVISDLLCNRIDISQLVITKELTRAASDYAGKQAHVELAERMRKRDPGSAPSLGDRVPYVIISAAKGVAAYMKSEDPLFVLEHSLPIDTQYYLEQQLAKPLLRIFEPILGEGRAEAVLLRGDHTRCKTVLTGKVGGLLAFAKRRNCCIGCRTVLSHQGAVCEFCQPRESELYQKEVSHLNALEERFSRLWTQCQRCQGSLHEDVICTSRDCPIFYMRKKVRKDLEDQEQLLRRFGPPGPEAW
UniProt P39748: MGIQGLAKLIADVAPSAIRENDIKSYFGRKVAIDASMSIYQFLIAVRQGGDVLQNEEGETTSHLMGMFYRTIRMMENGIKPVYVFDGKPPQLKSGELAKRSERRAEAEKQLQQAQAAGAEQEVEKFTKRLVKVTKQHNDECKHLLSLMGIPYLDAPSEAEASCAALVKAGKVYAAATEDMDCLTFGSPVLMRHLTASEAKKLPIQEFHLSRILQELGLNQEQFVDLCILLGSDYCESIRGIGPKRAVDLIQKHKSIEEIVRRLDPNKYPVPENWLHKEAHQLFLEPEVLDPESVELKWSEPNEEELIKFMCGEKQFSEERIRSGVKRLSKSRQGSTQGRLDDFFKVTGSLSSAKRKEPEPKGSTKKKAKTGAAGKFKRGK
UniProt Q15004: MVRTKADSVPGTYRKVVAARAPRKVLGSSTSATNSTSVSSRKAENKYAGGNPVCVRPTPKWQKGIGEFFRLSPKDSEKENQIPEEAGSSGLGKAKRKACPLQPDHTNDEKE

Legend:
[1] = biological target: POLD1 (polymerase delta p125 subunit) (UniProt P28340); assay: co-immunoprecipitation from cancer cell lysate, MALDI-TOF identification, confirmed by immunoprecipitation (Fig. 12)
[2] = biological target: FEN1 (flap endonuclease-1) (UniProt P39748); assay: as above
[3] = biological target: POLD1 (polymerase delta p125 subunit) (UniProt P28340); assay: co-immunoprecipitation from cancer cell lysate with anti-KIAA0101 polyclonal antibody, MALDI-TOF identification, confirmed by immunoprecipitation
[4] = biological target: FEN1 (flap endonuclease-1) (UniProt P39748); assay: as above

Measured: binding

KIAA0101 protein (p15PAF, PCNA-associated factor) (from UniProt Q15004 1-111)
binds: all assays above
